Here are results for 50 compounds from PubChem BioAssay AID1745846 (National Center for Advancing Translational Sciences (NCATS), 2022).

The structures appear in SMILES notation. Among all 1,400 compounds or so, about 30 (2%) were called active. Another 15% or so got no clear call; they are omitted. Calls come from the whole dose curve; as a rule, active = well fitted inhibition curve with a large enough effect; inconclusive = small, poorly fitted or top-dose-only effect; inactive = flat fitted curve, though single readings scatter. This is one part of the list.
% is set by controls: 0 for no effect and ±100 for the full control effect; potency is the fitted concentration of half-maximal effect.

This experiment is described as follows: Firefly Luciferase Counterscreen for Inhibitors of ATXN expression. The following applies: luminescence; series mostly up to 57.5 µM; activity change, negative = inhibition: at the top concentration. The method, boiled down:
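Recombinant firefly luciferase at 10 nM final in 50 mM Tris pH 7.5, 10 mM MgCl2, 0.05% BSA, 0.01% Tween20 with substrate; compounds up to 57 uM final, 10 min room temperature, end-point luminescence. Buffer-only wells define 100% inhibition.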
On the technique in general: Counterscreens check selectivity or assay interference.
For the compound `CC[C@@H]1C(c2cccc(Cl)c2)=NN(c2ccc(Br)cc2)[C@H]1C(=O)N1CCOC1=O`, the “activity change, negative = inhibition” value is inactive: 2.19%.

In the case of `O=C(c1ccco1)N1CCCC(c2nc(-c3ccc(S(=O)(=O)NCc4ccccc4)cc3)no2)C1` (stereo not given), the “activity change, negative = inhibition” value is inactive: 4.2%.

On to `c1ccc2c(c1)C(=NC1CCCCC1)NC2=NC1CCCCC1`, for which the “activity change, negative = inhibition” value is inactive: 3.21%. Same read-out and setting: the result for `O=C(/C=C/c1cccs1)c1cc(Br)ccc1OC(=O)N1CCOCC1` reads inactive: 0.0188%; that for `Cc1nnc(SCC(N)=O)n1CC1CCCO1` (stereo not given), inactive: 0.593%. On the same count and under the same terms, the result for `CCCC(=O)NC(c1ccc(Cl)cc1)c1ccc2cccnc2c1O` (stereo not given) reads inactive: -3.74%; that for `NC(=O)c1cccc(-c2ccnc3c2CC(C(=O)Nc2cccc(Oc4ccccc4)c2)O3)c1` (stereo not given), inactive: -7.75%. Same read-out and setting: the same measure for `Cc1ccc(/C=N/NC(=O)C2=NNC(c3ccccc3)(c3ccccc3)C2)c(O)c1`: inactive: -2.77%; for `CN(C)CCNc1ncnc2c1sc1nc(N3CCOCC3)c3c(c12)CC(C)(C)SC3`: inactive: 1.26%. `CCC(=O)NC(=S)NNC(=O)c1ccc(OC)cc1`: the “activity change, negative = inhibition” value is inactive: -13.5%. The same measure, in the same setting: the result for `COc1cccc(CNc2nc3cc(-c4ccc(C(=O)N5CCN(C)CC5)cc4)sc3c(=O)n2C)c1` reads inactive: 0.258%. Same read-out and setting: the result for `COc1cc(/C=C/CN2CCC(C(=O)NC(c3ccc(F)cc3)c3ccc4ccccc4n3)CC2)ccc1OC(C)=O` (stereo not given) reads inactive: -6.38%; that for `CC(C)N(Cc1ccccc1)C(=O)/C=C/c1ccccc1[N+](=O)[O-]`, inactive: -5.53%; that for `N=c1c2c(n(Cc3cccc(Cl)c3)c3c1CCC3)CCCC2`, inactive: 2.72%. The same measure, in the same setting: the result for `CCN(c1ccccc1)S(=O)(=O)c1ccc(C(=O)N(CCCN(C)C)c2nc3c(C)cccc3s2)cc1` reads inactive: 0.87%; that for `CCOC(=O)C(=CNc1ccc2c(c1)nnn2-c1ccc(Cl)cc1)C(=O)OCC`, inactive: 4.05%. As for `O=C(Nc1ccccc1C(=O)Nc1nnc(C(F)(F)F)s1)c1ccccc1Cl`, the Potency is active: 22.4 µM. `CC[n+]1c(/C=C/c2c[nH]c3ccccc23)ccc2cc(C)ccc21`: the “activity change, negative = inhibition” value is inactive: -11.8%. As for `CC(=NNC(=O)c1ccncc1)c1ccc(O)cc1O`, the “activity change, negative = inhibition” value was inactive: 4.15%. Same read-out and setting: the result for `COc1ccc(C2CC(c3ccc(C(F)(F)F)cc3)=NN2c2ccc(S(N)(=O)=O)cc2)cc1` (stereo not given) reads inactive: -1.14%.

As for `O=C(CCc1ccccc1)NC(c1cccs1)c1cc(Cl)c2cccnc2c1O` (stereo not given), the “activity change, negative = inhibition” value is inactive: -2.15%. Still for that read-out and setting: the same measure for `CCN(CC)CCNC(=O)c1ccc(NC(=O)c2ccccc2-c2ccc(C(F)(F)F)cc2)cc1`: inactive: 4.74%; for `COc1ccc(/C=C2/CSC/C(=C/c3ccc(OC)c(OC)c3)C2=O)cc1OC`: inactive: -3.2%; for `O=C(c1ccc2c(c1)OCO2)N(Cc1cccs1)C1(C(=O)NC2CCCCC2)CCCCC1`: inactive: 1.67%. Still for that read-out and setting: the same measure for `CN1CCN(C(c2ccc(C(F)(F)F)cc2)c2ccc3cccnc3c2O)CC1` (stereo not given): inactive: -2.36%. The same measure, in the same setting: the result for `COC(=O)C(Cc1ccc(O)cc1)NC(=O)C(C)Oc1ccccc1` (stereo not given) reads inactive: 1.05%. For `C/C(=N\N=C(N)N)c1ccc(Cl)cc1Cl`, the “activity change, negative = inhibition” value is inactive: 4.59%. Still for that read-out and setting: the result for `Cc1cc(C(=O)N/N=C/c2cc(Br)ccc2OC(=O)c2ccccc2Cl)n[nH]1` reads inactive: -3.39%; that for `CCN1C(=O)/C(=C/c2nc3ccccc3c(=O)n2-c2ccccc2)c2ccccc21`, inactive: 0.962%; that for `O=S(=O)(c1cccs1)N1CCN(c2ccnc3cc(Cl)ccc23)CC1`, inactive: 1.84%. Same read-out and setting: the result for `COc1cccc(/C=N/n2c(N)c(S(=O)(=O)c3cccs3)c3nc4ccccc4nc32)c1OC` reads inactive: -0.0288%; that for `CCN(C(=O)c1cc2c(C)nc3ccccc3c2o1)c1cc(Cl)ccc1OC`, inactive: -2.96%; that for `COc1cccc(CC(=O)Nc2nc(-c3ccc(OC)c(OC)c3)cs2)c1`, inactive: -3.4%. For `CCCCNCCCOc1cccc(Cl)c1Cl`, the “activity change, negative = inhibition” value was inactive: 5.28%.

In the case of `Cn1c(/C=C/c2cccc([N+](=O)[O-])c2)c([N+](=O)[O-])c(=O)n(C)c1=O`, the “activity change, negative = inhibition” value is inactive: -5.03%. Same read-out and setting: the result for `Cc1cc(/C=N/n2cnnc2)c(C)n1-c1ccc(OCc2ccc(F)cc2)cc1` reads inactive: -4.71%; that for `CCC(=O)NC(c1ccc(OC)cc1)c1cc(Cl)c2cccnc2c1O` (stereo not given), inactive: -11%.

On to `COc1ccc(CC(=O)N/N=C(\C)c2ccccn2)cc1`, for which the “activity change, negative = inhibition” value was inactive: -2.71%. On the same count and under the same terms, the result for `O=c1c2ccc(Cl)cc2nc(-c2cccc(C(F)(F)F)c2)n1O` reads inactive: -13.8%; that for `CCOc1ccc(S(=O)(=O)NCCC(=O)N2CC=C(c3ccccc3)CC2)cc1`, inactive: -2.65%; that for `O=[N+]([O-])c1ccccc1S(=O)c1ccccc1[N+](=O)[O-]`, inactive: 1.65%.

Take `Cc1nn(-c2ccccc2)c2nc(-c3cccs3)cc(C(=O)NN)c12`: the “activity change, negative = inhibition” value was inactive: 1.03%. Take `NNC(=O)c1sc2cc(C(F)(F)F)cnc2c1-c1cccs1`: the “activity change, negative = inhibition” value was inactive: -3.2%. Still for that read-out and setting: the result for `CN(C)CCCN(C(=O)c1ccc(S(=O)(=O)N2CCCC2)cc1)c1nc2ccc(Br)cc2s1` reads inactive: -2.15%; that for `CC[C@@]1(O)C(=O)OCc2c1cc1n(c2=O)Cc2cc3c(CN(C)C)c(O)ccc3nc2-1`, inactive: -5.05%. Same read-out and setting: the same measure for `O=C(Nc1ccccc1N1CCN(C(=O)c2ccccc2)CC1)c1ccc(Br)o1`: inactive: -11.4%. `OC(c1cc(-c2cccc(Cl)c2)nc2ccccc12)C1CCCCN1` (stereo not given): the “activity change, negative = inhibition” value was inactive: -8.8%. In the case of `Cc1ccc(Cn2ncc3c(NN)ncnc32)cc1`, the “activity change, negative = inhibition” value is inactive: 0.539%.

For `CN1CCN(c2nc(Nc3ccc(F)cc3)nc(Nc3ccc(F)cc3)n2)CC1`, the “activity change, negative = inhibition” value was inactive: 1.19%.

For `O=C(OCCN1C(=O)c2cccc3c(N4CCOCC4)ccc(c23)C1=O)c1ccccc1Cl`, the “activity change, negative = inhibition” value was inactive: -1.72%.
